Results on 1 sequence are retold here after publication PMC3603897.

The exact form of at least one protein or probe is not confirmed. At least one result comes from cells or an extract, where the contact may be indirect.

In this series the test system is STAT1-containing aberrant complex (T. gondii + IFNγ) (Mus musculus (BMDC)). Kind of series: EMSA with supershift. The conditions noted are these: T. gondii RH then IFNγ, aberrant complex increases over time, peak at 22 h; EMSA: LightShift binding buffer, 200 fmol probe, 1 ug poly(I)-poly(C), 2.5% glycerol, 50 mM KCl, 1 mM DTT, 1 mM EDTA, 20 min; protein in an extract; label: 5' biotin on both strands. (In EMSA bound probe runs differently from free probe, usually more slowly.)

“CATTTCGGGGAAATCGATC (double strand) [Irf-1 promoter GAS probe]”: the binding result was “binds”.
